# Experimental data from the supplement of paper PMC8728848.
# The other results are listed elsewhere or left out.
# B1: AntigenI/IIC123 (Streptococcus mutans), C9E3B4 (protein)
# chain: MASMTGGQQMGRIHFHYFKLAVQPQVNKEIRNNNDINIDRTLVAKQSVVKFQLKTADLPAGRDETTSFVLVDPLPSGYQFNPEATKAASPGFDVTYDNATNTVTFKATAATLATFNADLTKSVATIYPTVVGQVLNDGATYKNNFTLTVNDAYGIKSNVVRVTTPGKPNDPDNPNNNYIKPTKVNKNENGVVIDGKTVLAGSTNYYELTWDLDQYKNDRSSADTIQKGFYYVDDYPEEALELRQDLVKITDANGNEVTGVSVDNYTNLEAAPQEIRDVLSKAGIRPKGAFQIFRADNPREFYDTYVKTGIDLKIVSPMVVKKQMGQTGGSYENQAYQIDFGNGYASNIIINNVPKINPKKDVTLTLDPADTNNVDGQTIPLNTVFNYRLIGGIIPADHSEELFEYNFYDDYDQTGDHYTGQYKVFAKVDITFKDGSIIKSGAELTQYTTAEVDTAKGAITIKFKEAFLRSVSIDSAFQAESYIQMKRIAVGTFENTYINTVNGVTYSSLEHHHHHH
# What was measured:
# Assay in all cases: glycan array binding signal (z-score within array); higher = stronger binding
# Conditions in all cases: glycan notation: IUPAC condensed, linker removed
# [1] = molecular target: Gal(b1-3)[Fuc(a1-4)]GlcNAc(b1-6)GalNAc
# Method in brief: (§1)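 The binding signal is a Z-score computed within each array. Data were drawn from 3228 arrays in the Consortium for Functional Glycomics database, restricted to those with a known protein sequence. Scores were averaged over arrays of the same protein sequence at different concentrations or buffers, and over linkers, and negative values can be taken as non-binding.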
# [2] = molecular target: Gal(b1-3)[GlcNAc(b1-6)]GalNAc
# Method in brief: as §1
# [3] = molecular target: Gal(b1-3)[Neu5Ac(a2-6)]GalNAc
# Method in brief: as §1
# [4] = molecular target: Gal(b1-3)[Neu5Ac(a2-6)]GlcNAc(b1-4)Gal(b1-4)Glc
# Method in brief: as §1
# [5] = molecular target: Gal(b1-3)[Neu5Ac(b2-6)]GalNAc
# Method in brief: as §1
# [6] = molecular target: Gal(b1-4)Gal
# Method in brief: as §1
# [7] = molecular target: Gal(b1-4)GalNAc(a1-3)[Fuc(a1-2)]Gal(b1-4)GlcNAc
# Method in brief: as §1
# [8] = molecular target: Gal(b1-4)GalNAc(b1-3)[Fuc(a1-2)]Gal(b1-4)GlcNAc
# Method in brief: as §1
# [9] = molecular target: Gal(b1-4)Glc
# Method in brief: as §1
# [10] = molecular target: Gal(b1-4)Glc6S
# Method in brief: as §1
# [11] = molecular target: Gal(b1-4)GlcNAc
# Method in brief: as §1
# [12] = molecular target: Gal(b1-4)GlcNAc(a1-6)Gal(b1-4)GlcNAc
# Method in brief: as §1
# [13] = molecular target: Gal(b1-4)GlcNAc(b1-2)Man
# Method in brief: as §1
# [14] = molecular target: Gal(b1-4)GlcNAc(b1-2)Man(a1-3)Man(b1-4)GlcNAc(b1-4)GlcNAc
# Method in brief: as §1
# [15] = molecular target: Gal(b1-4)GlcNAc(b1-2)Man(a1-3)[Gal(b1-4)GlcNAc(b1-2)Man(a1-6)]Man(b1-4)GlcNAc(b1-4)GlcNAc
# Method in brief: as §1
# [16] = molecular target: Gal(b1-4)GlcNAc(b1-2)Man(a1-3)[Gal(b1-4)GlcNAc(b1-2)Man(a1-6)]Man(b1-4)GlcNAc(b1-4)[Fuc(a1-6)]GlcNAc
# Method in brief: as §1
# [17] = molecular target: Gal(b1-4)GlcNAc(b1-2)Man(a1-3)[Gal(b1-4)GlcNAc(b1-2)Man(a1-6)][Gal(b1-4)GlcNAc(b1-4)]Man(b1-4)GlcNAc(b1-4)[Fuc(a1-6)]GlcNAc
# Method in brief: as §1
# [18] = molecular target: Gal(b1-4)GlcNAc(b1-2)Man(a1-3)[Gal(b1-4)GlcNAc(b1-2)Man(a1-6)][GlcNAc(b1-4)]Man(b1-4)GlcNAc(b1-4)[Fuc(a1-6)]GlcNAc
# Method in brief: as §1
# [19] = molecular target: Gal(b1-4)GlcNAc(b1-2)Man(a1-3)[GlcNAc(b1-2)Man(a1-6)]Man(b1-4)GlcNAc(b1-4)GlcNAc
# Method in brief: as §1
# [20] = molecular target: Gal(b1-4)GlcNAc(b1-2)Man(a1-3)[GlcNAc(b1-4)][Gal(b1-4)GlcNAc(b1-2)Man(a1-6)]Man(b1-4)GlcNAc(b1-4)GlcNAc
# Method in brief: as §1
# [21] = molecular target: Gal(b1-4)GlcNAc(b1-2)Man(a1-3)[Man(a1-6)]Man(b1-4)GlcNAc(b1-4)GlcNAc
# Method in brief: as §1
# [22] = molecular target: Gal(b1-4)GlcNAc(b1-2)Man(a1-6)Man(b1-4)GlcNAc(b1-4)GlcNAc
# Method in brief: as §1
# [23] = molecular target: Gal(b1-4)GlcNAc(b1-2)Man(a1-6)[GlcNAc(b1-2)Man(a1-3)]Man(b1-4)GlcNAc(b1-4)GlcNAc
# Method in brief: as §1
# [24] = molecular target: Gal(b1-4)GlcNAc(b1-2)Man(a1-6)[Man(a1-3)]Man(b1-4)GlcNAc(b1-4)GlcNAc
# Method in brief: as §1
# [25] = molecular target: Gal(b1-4)GlcNAc(b1-2)[Gal(b1-4)GlcNAc(b1-4)]Man(a1-3)[Gal(b1-4)GlcNAc(b1-2)Man(a1-6)]Man(b1-4)GlcNAc(b1-4)GlcNAc
# Method in brief: as §1
# [26] = molecular target: Gal(b1-4)GlcNAc(b1-2)[Gal(b1-4)GlcNAc(b1-4)]Man(a1-3)[Gal(b1-4)GlcNAc(b1-2)[Gal(b1-4)GlcNAc(b1-6)]Man(a1-6)]Man(b1-4)GlcNAc(b1-4)GlcNAc
# Method in brief: as §1
# [27] = molecular target: Gal(b1-4)GlcNAc(b1-2)[Gal(b1-4)GlcNAc(b1-4)]Man(a1-3)[GlcNAc(b1-4)][Gal(b1-4)GlcNAc(b1-2)Man(a1-6)]Man(b1-4)GlcNAc(b1-4)GlcNAc
# Method in brief: as §1
# [28] = molecular target: Gal(b1-4)GlcNAc(b1-2)[Gal(b1-4)GlcNAc(b1-4)]Man(a1-3)[GlcNAc(b1-4)][Gal(b1-4)GlcNAc(b1-2)[Gal(b1-4)GlcNAc(b1-6)]Man(a1-6)]Man(b1-4)GlcNAc(b1-4)GlcNAc
# Method in brief: as §1
# [29] = molecular target: Gal(b1-4)GlcNAc(b1-2)[Gal(b1-4)GlcNAc(b1-6)]Man(a1-6)[Gal(b1-4)GlcNAc(b1-2)Man(a1-3)]Man(b1-4)GlcNAc(b1-4)GlcNAc
# Method in brief: as §1
# [30] = molecular target: Gal(b1-4)GlcNAc(b1-2)[Gal(b1-4)GlcNAc(b1-6)]Man(a1-6)[Gal(b1-4)GlcNAc(b1-2)Man(a1-3)]Man(b1-4)GlcNAc(b1-4)[Fuc(a1-6)]GlcNAc
# Method in brief: as §1
# [31] = molecular target: Gal(b1-4)GlcNAc(b1-2)[Gal(b1-4)GlcNAc(b1-6)]Man(a1-6)[GlcNAc(b1-4)][Gal(b1-4)GlcNAc(b1-2)Man(a1-3)]Man(b1-4)GlcNAc(b1-4)GlcNAc
# Method in brief: as §1
# [32] = molecular target: Gal(b1-4)GlcNAc(b1-2)[Gal(b1-4)GlcNAc(b1-6)]Man(a1-6)[GlcNAc(b1-4)][Gal(b1-4)GlcNAc(b1-2)[Gal(b1-4)GlcNAc(b1-4)]Man(a1-3)]Man(b1-4)GlcNAc(b1-4)[Fuc(a1-6)]GlcNAc
# Method in brief: as §1
# [33] = molecular target: Gal(b1-4)GlcNAc(b1-3)Gal(b1-3)GalNAc
# Method in brief: as §1
# [34] = molecular target: Gal(b1-4)GlcNAc(b1-3)Gal(b1-3)GlcNAc
# Method in brief: as §1
# [35] = molecular target: Gal(b1-4)GlcNAc(b1-3)Gal(b1-4)Glc
# Method in brief: as §1
# [36] = molecular target: Gal(b1-4)GlcNAc(b1-3)Gal(b1-4)GlcNAc
# Method in brief: as §1
# [37] = molecular target: Gal(b1-4)GlcNAc(b1-3)Gal(b1-4)GlcNAc(b1-2)Man(a1-3)[Gal(b1-4)GlcNAc(b1-3)Gal(b1-4)GlcNAc(b1-2)Man(a1-6)]Man(b1-4)GlcNAc(b1-4)GlcNAc
# Method in brief: as §1
# [38] = molecular target: Gal(b1-4)GlcNAc(b1-3)Gal(b1-4)GlcNAc(b1-2)Man(a1-3)[Gal(b1-4)GlcNAc(b1-3)Gal(b1-4)GlcNAc(b1-2)Man(a1-6)]Man(b1-4)GlcNAc(b1-4)[Fuc(a1-6)]GlcNAc
# Method in brief: as §1
binder,measurement,setting,value
B1,glycan array binding signal (z-score),[1],1.06
same,glycan array binding signal (z-score),[2],0.715
same,glycan array binding signal (z-score),[3],-0.159
same,glycan array binding signal (z-score),[4],-0.539
same,glycan array binding signal (z-score),[5],-0.106
same,glycan array binding signal (z-score),[6],-0.081
same,glycan array binding signal (z-score),[7],-0.864
same,glycan array binding signal (z-score),[8],-0.567
same,glycan array binding signal (z-score),[9],-0.194
same,glycan array binding signal (z-score),[10],0.662
same,glycan array binding signal (z-score),[11],-0.786
same,glycan array binding signal (z-score),[12],-0.039
same,glycan array binding signal (z-score),[13],0.057
same,glycan array binding signal (z-score),[14],-0.281
same,glycan array binding signal (z-score),[15],-0.463
same,glycan array binding signal (z-score),[16],0.3
same,glycan array binding signal (z-score),[17],2.65
same,glycan array binding signal (z-score),[18],-1.3
same,glycan array binding signal (z-score),[19],-0.939
same,glycan array binding signal (z-score),[20],-0.86
same,glycan array binding signal (z-score),[21],-1.01
same,glycan array binding signal (z-score),[22],-0.141
same,glycan array binding signal (z-score),[23],-1.29
same,glycan array binding signal (z-score),[24],-0.851
same,glycan array binding signal (z-score),[25],0.403
same,glycan array binding signal (z-score),[26],-0.85
same,glycan array binding signal (z-score),[27],-0.469
same,glycan array binding signal (z-score),[28],0.437
same,glycan array binding signal (z-score),[29],1
same,glycan array binding signal (z-score),[30],2.64
same,glycan array binding signal (z-score),[31],1.65
same,glycan array binding signal (z-score),[32],0.09
same,glycan array binding signal (z-score),[33],0.003
same,glycan array binding signal (z-score),[34],-0.666
same,glycan array binding signal (z-score),[35],-0.644
same,glycan array binding signal (z-score),[36],-0.529
same,glycan array binding signal (z-score),[37],0.498
same,glycan array binding signal (z-score),[38],1.21

# An excerpt of these results, bar-delimited:
binder | measurement | setting | value
B1 | glycan array binding signal (z-score) | [7] | -0.864
same | glycan array binding signal (z-score) | [8] | -0.567
